Results from publication PMC4279683.

Assays:
[1] = test system: GabR-His (Bacillus thuringiensis subsp. kurstaki HD73); assay: EMSA; conditions: 10 mM Tris-HCl pH 7.5, 0.5 mM DTT, 50 mM NaCl, 500 ng poly(dI:dC), 4% glycerol, 25 C, 20 min, 0.1 ug probe in 20 ul (EMSA), 120 ng in 50 ul (footprinting), recombinant protein, residues 1-455, label: 5' 6-FAM, probe letters rebuilt from the primers and the genome
[2] = test system: GabR-His (Bacillus thuringiensis subsp. kurstaki HD73); assay: competition EMSA; conditions: 5-fold excess unlabeled PgabT competes, 8 uM GabR; 10 mM Tris-HCl pH 7.5, 0.5 mM DTT, 50 mM NaCl, 500 ng poly(dI:dC), 4% glycerol, 25 C, 20 min; 0.1 ug probe in 20 ul (EMSA), 120 ng in 50 ul (footprinting); recombinant protein; residues 1-455; label: 5' 6-FAM; probe letters rebuilt from the primers and the genome
[3] = test system: GabR-His (Bacillus thuringiensis subsp. kurstaki HD73); assay: DNase I footprinting; conditions: 3.2, 4.8 and 8 uM GabR, 96 bp protected; 10 mM Tris-HCl pH 7.5, 0.5 mM DTT, 50 mM NaCl, 500 ng poly(dI:dC), 4% glycerol, 25 C, 20 min; 0.1 ug probe in 20 ul (EMSA), 120 ng in 50 ul (footprinting); recombinant protein; residues 1-455; label: 5' 6-FAM; probe letters rebuilt from the primers and the genome

Measured: binding result

GATTGCTATGCAATTGGGGTGCTATCTGGTACGGGAGACCGTCCAACATTAGAACCACTTGCTGATTTAGTGTTAGATTCTGTTGGAGAGTTTATTTCTCAATCGGGTGAGTTTTTCTGGGAGAAAGAAAAGTCTAATGTGTAAGGAAAATAAGTCTATAAAGACTCTTAATGAGTCTTTATAGACTTATTTTTTATGCCTGGATACAAAGAATATAGGATAAATGCTAGAAAAGAAAGTTGGCATACATTTTGCAATAAAAAGAGAAAACAATGTAAAGAAAAGG (double strand) [PgabT promoter fragment (286 bp)]
binds: [1]; GABA (0.1-50 uM), 2.5 uM GabR, binding not enhanced | [1]; SSA (0.1-50 uM), 2.5 uM GabR, binding not enhanced | [1]; poly(dI:dC) 500 ng | [2] | [3]

Construct, isoform or probe ends are uncertain for at least one entry.
